According to the supplement of paper PMC10689618:
Counter-ions that a name gives are not always drawn. The list shows a part of the results. Repeats are few or missing, and single values can be far off.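 Primary human fetal astrocytes engulfed labelled rat cortical synaptosomes, measured as a red/green ratio corrected for calcein live-cell signal and scaled to the plate median. Toxicity meant calcein falling over 30%; decreased phagocytosis meant below 70% of median above 5 µM.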

What was measured:
[1] = test system: Human fetal astrocytes; assay: loss of total cells relative to no-compound high-control median (toxicity); higher = more toxic (fewer cells); conditions: 24 h
[2] = test system: Human fetal astrocytes; assay: synaptosome phagocytosis (pHrodo/calcein intensity ratio) relative to plate median of data wells; higher = more phagocytosis; conditions: 24 h

Structure (SMILES) | loss of total cells ([1]; 1.39 µM) | loss of total cells ([1]; 2.78 µM) | loss of total cells ([1]; 5.56 µM) | loss of total cells ([1]; 11.11 µM) | loss of total cells ([1]; 22.22 µM) | synaptosome phagocytosis ([2]; 1.39 µM) | synaptosome phagocytosis ([2]; 2.78 µM) | synaptosome phagocytosis ([2]; 5.56 µM) | synaptosome phagocytosis ([2]; 11.11 µM) | synaptosome phagocytosis ([2]; 22.22 µM)
NC(=O)C(=O)O [Sodium Oxamate] | -3.3% | 4.1% | -1.4% | 21% | 2.8% | 102% | 100% | 119% | 127% | 118%
COc1cc2c(cc1C(F)(F)F)N(C(=O)Nc1cc(F)cc(-c3cccnc3)c1)CC2 | 7.9% | -0.9% | 17.3% | -10.3% | -5.6% | 121% | 110% | 94.4% | 87.3% | 97.6%
Cc1cc(NC(=O)Nc2ccc3c(ccn3C)c2)sn1 | -19.4% | -10.8% | -7.8% | 11.2% | 9.4% | 132% | 104% | 96.1% | 104% | 123%
COc1cccc(OC)c1OCCNCC1COc2ccccc2O1 (stereo not given) [WB-4101 hydrochloride] | -8.8% | -17.1% | -6.6% | -9.4% | 1.6% | 117% | 81.1% | 86.3% | 63.5% | 92.1%
NC(N)=NC(=O)c1nc(Cl)c(N2CCCCCC2)nc1N [5-(N,N-hexamethylene)amiloride] | -2.2% | -14.1% | -5.1% | -7.6% | 10.2% | 92.4% | 92.5% | 112% | 87% | 132%
N#C/C(=C\c1ccc(O)c(O)c1)C(=O)NCCc1ccccc1 [Tyrphostin AG 698] | -36.3% | -14.1% | -7.3% | -12.6% | -46.1% | 110% | 90.1% | 98% | 104% | 84.2%
c1ccc(C2CN3CCSC3=N2)cc1 (single isomer, unassigned; (-)) [(-)-Tetramisole hydrochloride] | -20.4% | 5% | -2.3% | 0% | 15.9% | 103% | 120% | 106% | 87% | 124%
Oc1ncnc2[nH]ncc12 [Allopurinol] | 0.4% | -17.7% | -15.2% | -6.7% | -1.9% | 141% | 130% | 95.2% | 99.7% | 139%
COc1ccccc1NC(=O)Nc1nc(-c2cccnc2)nc2ccccc12 | -12.7% | -22.5% | 0% | -24.9% | -36.2% | 113% | 108% | 113% | 83.6% | 112%
Oc1ccc(/C=C/c2cc(O)cc(O)c2)cc1 [Resveratrol] | -22% | 4.5% | -6.7% | -7.3% | 23.9% | 105% | 119% | 120% | 114% | 94%
C[C@H](O)C(=O)C1=Nc2c(nc(N)[nH]c2=O)NC1 [Sepiapterin] | -10.9% | -9.3% | -19.7% | -10.3% | 0% | 105% | 126% | 127% | 81.1% | 98.5%
Cn1c(=O)c2[nH]cnc2n(C)c1=O [Aminophylline ethylenediamine] | -5.5% | -2.4% | -19.8% | 12.1% | 6.4% | 108% | 78.2% | 109% | 116% | 92.2%
O=C(Nc1cccc(C(=O)Nc2ccc(S(=O)(=O)O)c3cc(S(=O)(=O)O)cc(S(=O)(=O)O)c23)c1)Nc1cccc(C(=O)Nc2ccc(S(=O)(=O)O)c3cc(S(=O)(=O)O)cc(S(=O)(=O)O)c23)c1 | -14.7% | -1.4% | -3.3% | 3.8% | 9.3% | 108% | 128% | 160% | 152% | 201%
CC1=C(C)C(=O)C(CCCCC#CCCCC#CCO)=C(C)C1=O | -15.4% | -21.1% | -16.1% | -24.7% | 13.9% | 88.6% | 105% | 96% | 86% | 70.1%
CC(C)N(CCC(=O)c1ccc2ccccc2c1)Cc1ccccc1 | -8.1% | 5.9% | 20.2% | 29.5% | 33.6% | 85% | 122% | 137% | 91.6% | 101%
N=C(N)SCCN [2-(2-Aminoethyl)isothiourea dihydrobromide] | -23.9% | -7.8% | 6.9% | 8.5% | 17.7% | 80.6% | 106% | 60.8% | 90.9% | 94.5%
CC(C)(Oc1ccc(C2CC2(Cl)Cl)cc1)C(=O)O (stereo not given) [Ciprofibrate] | -20.6% | -9.3% | -22.6% | -13% | -13.9% | 89.3% | 98.2% | 90% | 115% | 111%
N=C(NC(=O)c1nc(Cl)c(N)nc1N)Nc1ccccc1 [Phenamil methanesulfonate] | -20.8% | -23.1% | -13.5% | -19.5% | -16.5% | 80.1% | 62.3% | 68.4% | 82.8% | 58.5%

Part of the list above, with tabs.
Structure (SMILES)	loss of total cells ([1]; 1.39 µM)	loss of total cells ([1]; 2.78 µM)	loss of total cells ([1]; 5.56 µM)	loss of total cells ([1]; 11.11 µM)	loss of total cells ([1]; 22.22 µM)	synaptosome phagocytosis ([2]; 1.39 µM)	synaptosome phagocytosis ([2]; 2.78 µM)	synaptosome phagocytosis ([2]; 5.56 µM)	synaptosome phagocytosis ([2]; 11.11 µM)	synaptosome phagocytosis ([2]; 22.22 µM)
COc1cccc(OC)c1OCCNCC1COc2ccccc2O1 (stereo not given) [WB-4101 hydrochloride]	-8.8%	-17.1%	-6.6%	-9.4%	1.6%	117%	81.1%	86.3%	63.5%	92.1%
NC(N)=NC(=O)c1nc(Cl)c(N2CCCCCC2)nc1N [5-(N,N-hexamethylene)amiloride]	-2.2%	-14.1%	-5.1%	-7.6%	10.2%	92.4%	92.5%	112%	87%	132%
